These results are taken from patent EP4541822A2.

These are yes or no findings as the source states them, for the method shown. Some entries that bind do so weakly or less than the wild type.

Assay [1] has as its target recombinant protein (SUM)5-TRAIL. As to the kind of experiment: confocal imaging of SJSA-1 cells, (SIM)6-R4L (Red) plus (SUM)5-TRAIL (Green), 100 nM each (Fig. 2C).
The target is the same in assay [2]. Briefly: confocal imaging of SJSA-1 cells, (SIM)6 (Red) plus (SUM)5-TRAIL (Green), 100 nM each (Fig. 2B).

B1: recombinant protein (SIM)6-R4L (protein)
chain: MKHHHHHHHENLYFQGAMSSKVDVIDLTIESSSDEEEDPPAKRGGSGGSGGSGGSKVDVIDLTIESSSDEEEDPPAKRGGSGGSGGSGGSKVDVIDLTIESSSDEEEDPPAKRGAMKGGSGGSGGSGGSMSSKVDVIDLTIESSSDEEEDPPAKRGGSVGSGGSGGSKVDVIDLTIESSSDEEEDPPAKRGGSGGSGGRGGSKVDVIDLTIESSSDEEEDPPAKRGAMRCWGGSGGSGGSGGSMGMCYRKCRGGRRWCYQKCGGSGGSGGSGGS
As for B1, the binding entry in assay [1] is reported as “binds”.

B2: multivalent domain (SIM)6 (protein)
chain: MKHHHHHHHENLYFQGAMSSKVDVIDLTIESSSDEEEDPPAKRGGSGGSGGSGGSKVDVIDLTIESSSDEEEDPPAKRGGSGGSGGSGGSKVDVIDLTIESSSDEEEDPPAKRGAMKGGSGGSGGSGGSMSSKVDVIDLTIESSSDEEEDPPAKRGGSVGSGGSGGSKVDVIDLTIESSSDEEEDPPAKRGGSGGSGGRGGSKVDVIDLTIESSSDEEEDPPAKRGAMRCWGGSGGSGGSGGSMG
For B2, in assay [2], the binding result is listed as “binds”.
